Experimental data taken from PubChem BioAssay AID330 (DTP/NCI, 2004).
The list is a part of this screen's results and no random one: it gathers tests that were run many times, whatever their T/C, doses with no T/C, and many T/C values between a quarter and a half above the control. Further doses and runs are listed elsewhere. T/C gives the treated animals as a percentage of the vehicle group. Some doses have a count of surviving animals in place of a T/C: the source holds a T/C of zero for them, seemingly a mark for toxic or unscored doses. Some survivor counts are full or nearly so, which does not show that the dose was tolerated: the source hardly ever lists a survival T/C far under the control, and the zero likely stands for such cases as well. Counts of survivors are from the toxicity check (mostly the fifth day) where no day follows; animals may have died later. Schedules are NCI's codes, taken here to give the interval after Q, in days (D) or hours (H), and the number of doses after X. Some structures stand for samples that the source files as different forms (salt, stereo form or complex); doses refer to the form tested. Some doses were run more than once; the results are listed from low to high. Where survival is the endpoint, the PubChem record calls one and a half times the control and up active, and a quarter to a half above the control has no call in these data; cut-offs in other NCI protocols can differ.

Test system: P388 leukemia ip, CD2F1 mice, survival T/C
Test: NCI In Vivo Anticancer Drug Screen. Data for tumor model P388 Leukemia (intraperitoneal) in CD2F1 (CDF1) mice
Conditions: T/C endpoint: median survival time, higher T/C = longer survival
[1] = dose: 200.0 mg/kg/injection, schedule: Q01DX005 (ip), vehicle: Klucel (hydroxypropylcellulose) (HPC)
[2] = dose: 400.0 mg/kg/injection, schedule: Q04DX002 (ip), vehicle: saline with Tween-80
[3] = dose: 120.0 mg/kg/injection, schedule: Q01DX005 (ip), vehicle: saline with Tween-80
[4] = dose: 240.0 mg/kg/injection, schedule: Q01DX005 (ip), vehicle: saline with Tween-80

Cc1cc(N/N=C/c2cccc3ccccc23)c2cc3c(cc2n1)OCO3
survivor count (dose: 50.0 mg/kg/injection, schedule: Q01DX005 (ip), vehicle: Klucel (hydroxypropylcellulose) (HPC)): 1 of 6 | survivor count (dose: 100.0 mg/kg/injection, schedule: Q01DX005 (ip), vehicle: Klucel (hydroxypropylcellulose) (HPC)): 0 of 6 | survivor count [1]: 0 of 6

CNCc1c(O)ccc2c(-c3ccccc3)cc(=O)oc12
survivor count [2]: 2 of 6

CCCCCCCC[N+]1([O-])CCCCC1
survivor count (dose: 200.0 mg/kg/injection, schedule: Q01DX009 (ip), vehicle: saline): 0 of 6

Cc1cc(-c2c(C)[nH]n(-c3nc4ccc(F)cc4s3)c2=O)n(-c2nc3ccc(F)cc3s2)n1
survivor count [3]: 0 of 6 | survivor count [4]: 0 of 6

C[n+]1cc2ccccc2c2ccccc21
T/C (dose: 25.0 mg/kg/injection, schedule: Q01DX009 (ip), vehicle: saline): 128 % of control | T/C (dose: 50.0 mg/kg/injection, schedule: Q01DX005 (ip), vehicle: saline): 132 % of control | survivor count (dose: 50.0 mg/kg/injection, schedule: Q01DX009 (ip), vehicle: saline): 3 of 6 | survivor count (dose: 100.0 mg/kg/injection, schedule: Q01DX005 (ip), vehicle: saline): 0 of 5 and 1 of 5 | survivor count (dose: 100.0 mg/kg/injection, schedule: Q01DX009 (ip), vehicle: saline): 0 of 6 | survivor count (dose: 100.0 mg/kg/injection, schedule: Q01DX009 (ip), vehicle: water): 1 of 6 | survivor count (dose: 200.0 mg/kg/injection, schedule: Q01DX005 (ip), vehicle: saline): 0 of 5 | survivor count (dose: 200.0 mg/kg/injection, schedule: Q01DX009 (ip), vehicle: water): 0 of 6 | survivor count (dose: 400.0 mg/kg/injection, schedule: Q01DX009 (ip), vehicle: water): 0 of 6

CCCC/C(=N\NC(N)=NC)c1ccccc1
survivor count (dose: 100.0 mg/kg/injection, schedule: Q04DX002 (ip), vehicle: saline with Tween-80): 2 of 6

Cn1cc(NC(=O)c2cc(NC(=O)c3cc(NC=O)cn3C)cn2C)cc1C(=O)NCCC(=N)N
survivor count (dose: 240.0 mg/kg/injection, schedule: Q01DX005 (ip), vehicle: water): 0 of 6

Cc1cc(C)c(N)c(Br)c1
survivor count (dose: 100.0 mg/kg/injection, schedule: Q04DX003 (ip), vehicle: other): 3 of 6

CCN(CC)CCNc1ccc(COC(=O)OC)c2oc3ccccc3c(=O)c12
survivor count (dose: 50.0 mg/kg/injection, schedule: Q01DX005 (ip), vehicle: saline with Tween-80): 3 of 6

CCN1C(=O)C(=NO)C(=O)N(CC)C1=S.CCN1C(=O)C(=N[O-])C(=O)N(CC)C1=S.CCN1C(=O)C(=N[O-])C(=O)N(CC)C1=S.[Fe+3]
survivor count [2]: 3 of 6

c1cc(OCC2CO2)cc(OCC2CO2)c1 (configuration not stated)
survivor count (dose: 200.0 mg/kg/injection, schedule: Q01DX009 (ip), vehicle: DMSO): 6 of 6

Cc1ccc(C2(c3ccccc3)OC(=O)c3ccccc32)cc1 (configuration not stated)
survivor count (dose: 50.0 mg/kg/injection, schedule: Q01DX009 (ip), vehicle: saline sonified): 6 of 6 | survivor count (dose: 100.0 mg/kg/injection, schedule: Q01DX009 (ip), vehicle: saline sonified): 6 of 6

[Br][Sn]([CH2]CC[CH2][Sn]([Br])([c]1ccccc1)[c]1ccccc1)([c]1ccccc1)[c]1ccccc1
survivor count [1]: 4 of 6

FC(F)(F)C1(C(F)(F)F)OI(Cl)c2ccccc21
survivor count (dose: 100.0 mg/kg/injection, schedule: Q04DX002 (ip), vehicle: Klucel (hydroxypropylcellulose) (HPC)): 6 of 6 | survivor count (dose: 200.0 mg/kg/injection, schedule: Q04DX002 (ip), vehicle: Klucel (hydroxypropylcellulose) (HPC)): 5 of 6 | survivor count (dose: 400.0 mg/kg/injection, schedule: Q04DX002 (ip), vehicle: Klucel (hydroxypropylcellulose) (HPC)): 2 of 6

Cc1ccc(C(N)=Nc2ccccc2)cc1
survivor count [3]: 0 of 6 | survivor count [4]: 0 of 6

CCC(C)/C(=C\C#N)NCCCCCCN/C(=C/C#N)C(C)CC (configuration not stated)
survivor count (dose: 60.0 mg/kg/injection, schedule: Q01DX005 (ip), vehicle: Klucel (hydroxypropylcellulose) (HPC)): 6 of 6 | survivor count (dose: 120.0 mg/kg/injection, schedule: Q01DX005 (ip), vehicle: Klucel (hydroxypropylcellulose) (HPC)): 6 of 6
